# The other results are listed elsewhere or left out.
# Key:
# Test in all cases: glycan array binding signal (z-score within array); higher = stronger binding
# Settings in all cases: glycan notation: IUPAC condensed, linker removed
# Neu5Ac(a2-8)Neu5Ac = molecular target: Neu5Ac(a2-8)Neu5Ac
# Procedure, shortened: (§1)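 Negative Z-scores can be read as non-binding. The Z-score is calculated within each array and then averaged across arrays of one protein sequence at different concentrations or buffers and across linkers. Arrays, 3228 in all, were curated from the Consortium for Functional Glycomics database and kept only where the protein sequence was available.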
# [1] = molecular target: Neu5Ac(a2-8)Neu5Ac(a2-3)Gal(b1-3)GalNAc(b1-4)[Neu5Ac(a2-3)]Gal(b1-4)Glc
# Procedure, shortened: as §1
# [2] = molecular target: Neu5Ac(a2-8)Neu5Ac(a2-3)Gal(b1-3)GalNAc(b1-4)[Neu5Ac(a2-8)Neu5Ac(a2-3)]Gal(b1-4)Glc
# Procedure, shortened: as §1
# [3] = molecular target: Neu5Ac(a2-8)Neu5Ac(a2-3)Gal(b1-4)Glc
# Procedure, shortened: as §1
# [4] = molecular target: Neu5Ac(a2-8)Neu5Ac(a2-3)Gal(b1-4)GlcNAc
# Procedure, shortened: as §1
# [5] = molecular target: Neu5Ac(a2-8)Neu5Ac(a2-3)[Gal(b1-3)GalNAc(b1-4)]Gal(b1-4)Glc
# Procedure, shortened: as §1
# [6] = molecular target: Neu5Ac(a2-8)Neu5Ac(a2-3)[GalNAc(b1-4)]Gal(b1-4)Glc
# Procedure, shortened: as §1
# [7] = molecular target: Neu5Ac(a2-8)Neu5Ac(a2-8)Neu5Ac
# Procedure, shortened: as §1
# [8] = molecular target: Neu5Ac(a2-8)Neu5Ac(a2-8)Neu5Ac(a2-3)Gal(b1-4)Glc
# Procedure, shortened: as §1
# [9] = molecular target: Neu5Ac(a2-8)Neu5Ac(a2-8)Neu5Ac(a2-3)[Gal(b1-3)GalNAc(b1-4)]Gal(b1-4)Glc
# Procedure, shortened: as §1
# [10] = molecular target: Neu5Ac(a2-8)Neu5Ac(a2-8)Neu5Ac(a2-3)[GalNAc(b1-4)]Gal(b1-4)Glc
# Procedure, shortened: as §1
# [11] = molecular target: Neu5Ac(a2-8)Neu5Ac(a2-8)Neu5Ac(a2-8)Neu5Ac(a2-3)[GalNAc(b1-4)]Gal(b1-4)Glc
# Procedure, shortened: as §1
# [12] = molecular target: Neu5Ac(a2-8)Neu5Gc(a2-3)Gal(b1-4)GlcNAc
# Procedure, shortened: as §1
# [13] = molecular target: Neu5Ac(b2-6)Gal(b1-4)GlcNAc
# Procedure, shortened: as §1
# Neu5Ac(b2-6)GalNAc = molecular target: Neu5Ac(b2-6)GalNAc
# Procedure, shortened: as §1
# [14] = molecular target: Neu5Ac9Ac(a2-3)Gal(b1-3)GlcNAc
# Procedure, shortened: as §1
# [15] = molecular target: Neu5Ac9Ac(a2-3)Gal(b1-4)GlcNAc
# Procedure, shortened: as §1
# [16] = molecular target: Neu5Ac9Ac(a2-6)Gal(b1-4)GlcNAc
# Procedure, shortened: as §1
# [17] = molecular target: Neu5Gc(a2-3)Gal(b1-3)GlcNAc
# Procedure, shortened: as §1
# [18] = molecular target: Neu5Gc(a2-3)Gal(b1-3)[Fuc(a1-4)]GlcNAc
# Procedure, shortened: as §1
# Neu5Gc(a2-3)Gal(b1-4)Glc = molecular target: Neu5Gc(a2-3)Gal(b1-4)Glc
# Procedure, shortened: as §1
# [19] = molecular target: Neu5Gc(a2-3)Gal(b1-4)GlcNAc
# Procedure, shortened: as §1
# [20] = molecular target: Neu5Gc(a2-3)Gal(b1-4)GlcNAc(b1-3)Gal(b1-4)GlcNAc(b1-2)Man(a1-3)[Neu5Gc(a2-3)Gal(b1-4)GlcNAc(b1-3)Gal(b1-4)GlcNAc(b1-2)Man(a1-6)]Man(b1-4)GlcNAc(b1-4)GlcNAc
# Procedure, shortened: as §1
# [21] = molecular target: Neu5Gc(a2-3)Gal(b1-4)[Fuc(a1-3)]GlcNAc
# Procedure, shortened: as §1
# [22] = molecular target: Neu5Gc(a2-6)Gal(b1-4)GlcNAc
# Procedure, shortened: as §1
# Neu5Gc(a2-6)GalNAc = molecular target: Neu5Gc(a2-6)GalNAc
# Procedure, shortened: as §1
# [23] = molecular target: Neu5Gc(a2-8)Neu5Ac(a2-3)Gal(b1-4)GlcNAc
# Procedure, shortened: as §1
# [24] = molecular target: Neu5Gc(a2-8)Neu5Gc(a2-3)Gal(b1-4)GlcNAc
# Procedure, shortened: as §1
# [25] = molecular target: Neu5Gc(a2-8)Neu5Gc(a2-3)Gal(b1-4)GlcNAc(b1-3)Gal(b1-4)GlcNAc
# Procedure, shortened: as §1
# [26] = molecular target: Neu5Gc(a2-8)Neu5Gc(a2-6)Gal(b1-4)GlcNAc
# Procedure, shortened: as §1
# [27] = molecular target: Neu5Gc(b2-6)Gal(b1-4)GlcNAc
# Procedure, shortened: as §1
binder,measurement,setting,value
PX14404-bvu-534-26-534 (Bacteroides vulgatus) (protein) EDPRGKLTPENFFSTQDELNMSIYALYQKVNLSQVYTNMQLPQWQGDDITTNPGSNKQPAAEMDKFAAANNNKGVKDAWNMHYAIVKAANLIIQGASKTPTTQDEINIALGQAKFWRAYAYFTLVRLWGPLPMNLDNVNDDYTKPLSPVEEVYGHIVQDLTEAEAVLPTGYSGSPRFLNGVNVYVTRQAAKSTLAAVYMAMAGWPMNKTEYYAKAAEKAKEVIEGVNRGEYEYKLDKDYKDVYAMSNNYNNETVLGINYSPFVDWAQDSELTSCNQFESLGGWGDAWGEIRFWKEFPDGPRKDATYDPKIRLKDGTLVDWWELKEDGTPVVPEHHPMFSIFSVNWDPASKVNTSAPYDYTKPASQNMCNDHRHRIIRYSEVLLWYAEAKARTGQTDELAFKCLNDVRERAGLEPLTGLSADDLAEAAYKEHGWEVAGYWVALVTRRADQFRMNRLKDTFKERAENTAVEVADGILVKESVEYTNRTWSDNLMYLPYPDMDSQKNPNLVR,glycan array binding signal (z-score),Neu5Ac(a2-8)Neu5Ac,0.425
same,glycan array binding signal (z-score),[1],0.834
same,glycan array binding signal (z-score),[2],0.607
same,glycan array binding signal (z-score),[3],-0.559
same,glycan array binding signal (z-score),[4],-0.119
same,glycan array binding signal (z-score),[5],-0.754
same,glycan array binding signal (z-score),[6],-0.271
same,glycan array binding signal (z-score),[7],0.419
same,glycan array binding signal (z-score),[8],1.02
same,glycan array binding signal (z-score),[9],-0.014
same,glycan array binding signal (z-score),[10],0.28
same,glycan array binding signal (z-score),[11],0.074
same,glycan array binding signal (z-score),[12],12.9
same,glycan array binding signal (z-score),[13],-0.796
same,glycan array binding signal (z-score),Neu5Ac(b2-6)GalNAc,-0.232
same,glycan array binding signal (z-score),[14],-0.552
same,glycan array binding signal (z-score),[15],-0.197
same,glycan array binding signal (z-score),[16],0.363
same,glycan array binding signal (z-score),[17],-0.601
same,glycan array binding signal (z-score),[18],-1.1
same,glycan array binding signal (z-score),Neu5Gc(a2-3)Gal(b1-4)Glc,0.615
same,glycan array binding signal (z-score),[19],-0.013
same,glycan array binding signal (z-score),[20],-0.423
same,glycan array binding signal (z-score),[21],-0.707
same,glycan array binding signal (z-score),[22],-0.607
same,glycan array binding signal (z-score),Neu5Gc(a2-6)GalNAc,1.92
same,glycan array binding signal (z-score),[23],-1.55
same,glycan array binding signal (z-score),[24],-0.893
same,glycan array binding signal (z-score),[25],-0.559
same,glycan array binding signal (z-score),[26],-0.649
same,glycan array binding signal (z-score),[27],-1.04

# Reference: the supplement of paper PMC8728848
